According to patent US9598359B2, “Sulfonates from natural oil metathesis” (priority 2010, dated 2017):

Conditions: 1200 cycles

SMILES: CCCCCCCCCCCC(=O)OC(CCCCCCCC(=O)OC)C(CC)S(=O)(=O)[O-].[Na+] (stereo not shown) [C12-37, C12 UME C12 FA (60:40) SLA]
- % coating removed, scrub: 2.36%
